PubChem BioAssay AID1259281 – Sanger Institute – 2017
Screen: 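Identify essential genes and drug-enhancing knock-downs among kinases and common colorectal mutated genes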 (primary screen). System: human COLO678 colorectal cancer cell line. Reagents: siRNA pool against human genes. Treatment: anchor drugs at fixed doses: BYL719 1 µM, cetuximab 5 µg/ml or trametinib 10 nM; DMSO vehicle for the siRNA-alone arm. Read-out: 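Cell viability compared with non-targeting pool wells, averaged over replicates; knock-down-alone effect also as robust z-score; synergy scores set knock-down plus drug against expected joint effect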. Direction: robust z-score, siRNA alone: higher = more viable cells; strongly negative means essential. Hit rule: 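Essential (knock-down alone) when the siRNA-alone robust z-score is below -3; otherwise no change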. Calls: active = essential (knock-down alone); inactive = no change.
The whole screen tested 794 reagents; below is a random part of them. Of all reagents, 22 (2.8%) are marked active. 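Calls rest on knock-down alone only; drug synergy scores play no part in them.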 A number with no mark means an inactive call. Further read-outs or replicates are left out here. The record does not give: the amount of reagent, the time to read-out.

With knock-down of AKT2 (AKT serine/threonine kinase 2) the results were robust z-score, siRNA alone 0.473.
Silencing of FGFR4 (fibroblast growth factor receptor 4) came out at: robust z-score, siRNA alone 0.473.
With knock-down of RFK (riboflavin kinase) the results were robust z-score, siRNA alone -1.5.
Depletion of CSNK2A1 (casein kinase 2 alpha 1) came out at: robust z-score, siRNA alone 0.473.
Knock-down of HUNK (hormonally up-regulated Neu-associated kinase) came out at: robust z-score, siRNA alone 0.473.
STK32C (serine/threonine kinase 32C) showed robust z-score, siRNA alone 0.473.
Depletion of RAF1 (Raf-1 proto-oncogene, serine/threonine kinase) resulted in: robust z-score, siRNA alone -2.67.
With knock-down of TTBK1 (tau tubulin kinase 1) the results were robust z-score, siRNA alone 0.473.
Depletion of PTPN11 (protein tyrosine phosphatase non-receptor type 11) resulted in: robust z-score, siRNA alone 0.473.
For PASK (PAS domain containing serine/threonine kinase), the entry reads robust z-score, siRNA alone 0.197.
After knock-down of TWF1 (twinfilin actin binding protein 1) the results were robust z-score, siRNA alone 0.473.
For PRKACB (protein kinase cAMP-activated catalytic subunit beta), the values are robust z-score, siRNA alone 0.473.
Silencing of WNK1 (WNK lysine deficient protein kinase 1) gave: robust z-score, siRNA alone 0.473.
For SYK (spleen associated tyrosine kinase) the deposit lists robust z-score, siRNA alone -0.285.
Against VRK3 (VRK serine/threonine kinase 3), the entry reads robust z-score, siRNA alone 0.473.
CDK5R2 (cyclin dependent kinase 5 regulatory subunit 2) showed robust z-score, siRNA alone 0.473.

In a second layout: 6 of the entries above
gene,"robust z-score, siRNA alone"
TTBK1 (tau tubulin kinase 1),0.473
PTPN11 (protein tyrosine phosphatase non-receptor type 11),0.473
PASK (PAS domain containing serine/threonine kinase),0.197
TWF1 (twinfilin actin binding protein 1),0.473
PRKACB (protein kinase cAMP-activated catalytic subunit beta),0.473
WNK1 (WNK lysine deficient protein kinase 1),0.473

The listing continues:
After knock-down of DDR2 (discoidin domain receptor tyrosine kinase 2), the screen gave robust z-score, siRNA alone 0.473.
With knock-down of IP6K2 (inositol hexakisphosphate kinase 2), the record shows robust z-score, siRNA alone 0.473.
Against GALK2 (galactokinase 2), the entry reads robust z-score, siRNA alone 0.473.
With knock-down of PRKCD (protein kinase C delta), the screen gave robust z-score, siRNA alone 0.151.
With knock-down of RPS6KB1 (ribosomal protein S6 kinase B1) the results were robust z-score, siRNA alone 0.473.
After knock-down of RSKR (ribosomal protein S6 kinase related), the record shows robust z-score, siRNA alone 0.473.
Against MAPK3 (mitogen-activated protein kinase 3), the values are robust z-score, siRNA alone -0.206.
For IGF1R (insulin like growth factor 1 receptor), the entry reads robust z-score, siRNA alone -1.88.
Knock-down of DGKD (diacylglycerol kinase delta) resulted in: robust z-score, siRNA alone -1.41.
Against SHPK (sedoheptulokinase) the deposit lists robust z-score, siRNA alone 0.473.
After knock-down of PDIK1L (PDLIM1 interacting kinase 1 like) the results were robust z-score, siRNA alone 0.473.
With knock-down of MET (MET proto-oncogene, receptor tyrosine kinase), the screen gave robust z-score, siRNA alone 0.473.
NEK4 (NIMA related kinase 4) gave robust z-score, siRNA alone 0.473.
Silencing of CDKN2B (cyclin dependent kinase inhibitor 2B) came out at: robust z-score, siRNA alone 0.473.
PXK (PX domain containing serine/threonine kinase like) showed robust z-score, siRNA alone 0.473.
Against ALK (ALK receptor tyrosine kinase), the values are robust z-score, siRNA alone 0.473.
Against IPMK (inositol polyphosphate multikinase), the values are robust z-score, siRNA alone 0.473.
For CEP290 (centrosomal protein 290) the deposit lists robust z-score, siRNA alone 0.473.
Against PTK6 (protein tyrosine kinase 6), the entry reads robust z-score, siRNA alone 0.473.
With knock-down of HIPK1 (homeodomain interacting protein kinase 1), the record shows robust z-score, siRNA alone 0.473.
